Source: PubChem BioAssay AID328 (DTP/NCI, 2004)
The list is a part of this screen's results and no random one: it is rich in T/C values a quarter to a half above the control, in often repeated tests (any T/C) and in doses without a T/C. Further doses and runs are listed elsewhere. T/C is the treated group as % of the vehicle group. Some doses have a count of surviving animals in place of a T/C: the source holds a T/C of zero for them, seemingly a mark for toxic or unscored doses. Some doses without a T/C left all or most animals alive at the check, yet need not have been tolerated: the source hardly ever lists a survival T/C far under the control, and the zero likely stands for such cases as well. Survivors were counted at the toxicity check, usually on the fifth day, unless a day is given; later deaths do not show. Schedules are NCI's codes, taken here to give the interval after Q, in days (D) or hours (H), and the number of doses after X. Some doses were run more than once; their values stand side by side, smallest first. Where survival is the endpoint, the PubChem record calls one and a half times the control and up active, and a quarter to a half above the control has no call in these data; cut-offs in other NCI protocols can differ. Additions like (4×) count equal records among those shown. Some T/C values are followed by the survivors on the day toxicity was checked, most often the fifth; where none is given, no animal had died by that day.

System: BDF1 mice, P388 leukemia ip, median survival T/C
Test: NCI In Vivo Anticancer Drug Screen. Data for tumor model P388 Leukemia (intraperitoneal) in B6D2F1 (BDF1) mice
Conditions: T/C endpoint: median survival time, higher T/C = longer survival
Method in brief: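 Reported as T/C, where T is the survival measurement in dosed animals and C the same measurement in vehicle controls.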

[1] = dose: 25.0 mg/kg/injection, schedule: Q01DX009 (ip), vehicle: saline with Tween-80
[2] = dose: 50.0 mg/kg/injection, schedule: Q01DX009 (ip), vehicle: saline with Tween-80
[3] = dose: 10.0 mg/kg/injection, schedule: Q01DX009 (ip), vehicle: saline
[4] = dose: 20.0 mg/kg/injection, schedule: Q01DX009 (ip), vehicle: saline with Tween-80
[5] = dose: 1.56 mg/kg/injection, schedule: Q01DX009 (ip), vehicle: water
[6] = dose: 6.25 mg/kg/injection, schedule: Q01DX009 (ip), vehicle: water
[7] = dose: 12.5 mg/kg/injection, schedule: Q01DX009 (ip), vehicle: water

SMILES: CC1CC[N-]CC1.CC1CC[N-]CC1.[Br][Pt+2]([Br])([Br])[Br]
- T/C (dose: 12.5 mg/kg/injection, schedule: Q01DX009 (ip), vehicle: saline with Tween-80): 139 % of control
- T/C (dose: 12.5 mg/kg/injection, schedule: Q04DX003 (ip), vehicle: saline with Tween-80): 138 % of control
- survivor count [1]: 3 of 6
- T/C (dose: 25.0 mg/kg/injection, schedule: Q04DX003 (ip), vehicle: saline with Tween-80): 128 % of control
- survivor count [2]: 1 of 6

SMILES: [N-]=[N+]=NCc1cnccn1
- survivor count (dose: 50.0 mg/kg/injection, schedule: Q01DX009 (ip), vehicle: saline): 1 of 6

SMILES: CC(=O)C1COC(O)C1C (centres undefined)
- T/C (dose: 5.0 mg/kg/injection, schedule: Q01DX009 (ip), vehicle: saline): 142 % of control (2×)
- T/C (dose: 5.0 mg/kg/injection, schedule: Q01DX010 (ip), vehicle: saline): 129 % of control
- T/C [3]: 130 % of control
- survivor count [3]: 5 of 6

SMILES: Cc1cc2c3ccccc3ccc2[n+]2ccccc12
- T/C (dose: 6.1 mg/kg/injection, schedule: Q01DX009 (ip), vehicle: saline): 125 % of control
- survivor count (dose: 18.75 mg/kg/injection, schedule: Q01DX009 (ip), vehicle: saline): 0 of 6
- survivor count (dose: 28.12 mg/kg/injection, schedule: Q01DX009 (ip), vehicle: saline): 0 of 6
- survivor count (dose: 37.5 mg/kg/injection, schedule: Q01DX009 (ip), vehicle: saline): 0 of 6
- survivor count (dose: 75.0 mg/kg/injection, schedule: Q04DX003 (ip), vehicle: alcohol): 1 of 6
- survivor count (dose: 150.0 mg/kg/injection, schedule: Q04DX003 (ip), vehicle: alcohol): 0 of 6

SMILES: CC(=O)Nc1ccc(C(=O)O)c([N+](=O)[O-])c1
- T/C (dose: 200.0 mg/kg/injection, schedule: Q01DX009 (ip), vehicle: saline): 125 % of control
- survivor count (dose: 400.0 mg/kg/injection, schedule: Q01DX009 (ip), vehicle: saline): 4 of 6

SMILES: COc1ccccc1-n1c(=O)c(N=Nc2ccccc2)c(O)n(-c2ccccc2C)c1=S
- survivor count (dose: 400.0 mg/kg/injection, schedule: Q01DX001 (ip), vehicle: saline with Tween-80): 2 of 6

SMILES: O=[N+]([O-])/C=C/c1ccc2ccccc2n1
- T/C (dose: 5.0 mg/kg/injection, schedule: Q01DX009 (ip), vehicle: saline with Tween-80): 129 % of control
- T/C (dose: 10.0 mg/kg/injection, schedule: Q01DX009 (ip), vehicle: saline with Tween-80): 125 % of control [5 of 6 alive]
- T/C [4]: 125 % of control [4 of 6 alive]
- survivor count [4]: 4 of 6
- survivor count (dose: 30.0 mg/kg/injection, schedule: Q01DX009 (ip), vehicle: saline with Tween-80): 1 of 6
- survivor count (dose: 40.0 mg/kg/injection, schedule: Q01DX009 (ip), vehicle: saline with Tween-80): 0 of 6
- survivor count (dose: 50.0 mg/kg/injection, schedule: Q04DX003 (ip), vehicle: saline with Tween-80): 4 of 6

SMILES: C[n+]1cc2c3ccccc3c(N)cc2c2ccccc21
- T/C [5]: 132 % of control
- T/C [6]: 132 % of control
- T/C [7]: 132 % of control
- survivor count [7]: 4 of 6
- T/C (dose: 25.0 mg/kg/injection, schedule: Q04DX003 (ip), vehicle: water): 127 % of control
- survivor count (dose: 50.0 mg/kg/injection, schedule: Q01DX009 (ip), vehicle: water): 3 of 6
- T/C (dose: 50.0 mg/kg/injection, schedule: Q04DX003 (ip), vehicle: water): 136 and 138 % of control
- T/C (dose: 100.0 mg/kg/injection, schedule: Q04DX003 (ip), vehicle: water): 129 % of control
- survivor count (dose: 200.0 mg/kg/injection, schedule: Q04DX003 (ip), vehicle: water): 4 of 6 and 6 of 6

SMILES: O=C(Nc1ccc(Cl)cc1C(=O)c1ccccn1)c1ccccc1
- T/C (dose: 100.0 mg/kg/injection, schedule: Q04DX003 (ip), vehicle: saline with Tween-80): 130 % of control

SMILES: CS(=O)(=O)OCCC#N
- survivor count (dose: 25.0 mg/kg/injection, schedule: Q01DX009 (ip), vehicle: saline): 6 of 6
- survivor count (dose: 100.0 mg/kg/injection, schedule: Q01DX009 (ip), vehicle: saline): 6 of 6
- survivor count (dose: 200.0 mg/kg/injection, schedule: Q04DX003 (ip), vehicle: alcohol): 5 of 6
- survivor count (dose: 225.0 mg/kg/injection, schedule: Q01DX009 (ip), vehicle: saline): 0 of 6
- survivor count (dose: 335.0 mg/kg/injection, schedule: Q01DX009 (ip), vehicle: saline): 0 of 6
- survivor count (dose: 400.0 mg/kg/injection, schedule: Q04DX003 (ip), vehicle: alcohol): 0 of 6

SMILES: C1=C(c2ccccc2)CS1
- survivor count (dose: 100.0 mg/kg/injection, schedule: Q01DX001 (ip), vehicle: saline with Tween-80): 2 of 6

SMILES: CCCCCCCOC(C[N+](=O)[O-])C(Cl)(Cl)Cl (centres undefined)
- survivor count (dose: 75.0 mg/kg/injection, schedule: Q01DX009 (ip), vehicle: saline with Tween-80): 3 of 6
- survivor count (dose: 115.0 mg/kg/injection, schedule: Q01DX009 (ip), vehicle: saline with Tween-80): 0 of 6
- survivor count (dose: 170.0 mg/kg/injection, schedule: Q01DX009 (ip), vehicle: saline with Tween-80): 0 of 6
- survivor count (dose: 225.0 mg/kg/injection, schedule: Q04DX003 (ip), vehicle: saline): 6 of 6
- survivor count (dose: 340.0 mg/kg/injection, schedule: Q04DX003 (ip), vehicle: saline): 6 of 6

SMILES: O=[N+]([O-])c1cc([N+](=O)[O-])c(Cl)cc1Cl
- survivor count (dose: 100.0 mg/kg/injection, schedule: Q04DX003 (ip), vehicle: Klucel (hydroxypropylcellulose) (HPC)): 6 of 6

SMILES: c1ccc(OCC2CO2)c(OCC2CO2)c1 (centres undefined)
- T/C (dose: 30.0 mg/kg/injection, schedule: Q01DX005 (ip), vehicle: saline with Tween-80): 135 % of control

SMILES: CCCN1CCC2(CC1)COCc1ccccc12
- survivor count (dose: 200.0 mg/kg/injection, schedule: Q04DX002 (ip), vehicle: saline with Tween-80): 1 of 6

SMILES: CN(N=O)C(=O)NC(C=O)C(O)C(O)C(O)CO (centres undefined)
- T/C (dose: 50.0 mg/kg/injection, schedule: Q01DX010 (ip), vehicle: saline): 131 % of control
- survivor count (dose: 100.0 mg/kg/injection, schedule: Q01DX010 (ip), vehicle: saline): 6 of 6
- survivor count (dose: 200.0 mg/kg/injection, schedule: Q01DX010 (ip), vehicle: saline): 3 of 6

SMILES: N#CCC(C#N)N1CCOCC1 (centres undefined)
- survivor count [1]: 6 of 6
- survivor count [2]: 6 of 6
- survivor count (dose: 100.0 mg/kg/injection, schedule: Q01DX009 (ip), vehicle: saline with Tween-80): 6 of 6
- survivor count (dose: 200.0 mg/kg/injection, schedule: Q04DX003 (ip), vehicle: saline with Tween-80): 1 of 6

SMILES: C(=N\C(/N=C/c1ccccc1)c1ccccc1)/c1ccccc1
- survivor count (dose: 200.0 mg/kg/injection, schedule: Q01DX009 (ip), vehicle: Klucel (hydroxypropylcellulose) (HPC)): 6 of 6

SMILES: COc1cc(/C=N/NC(=O)COCC(=O)N/N=C/c2ccc(O)cc2OC)ccc1O
- survivor count (dose: 50.0 mg/kg/injection, schedule: Q01DX005 (ip), vehicle: saline with Tween-80): 4 of 5
- survivor count (dose: 100.0 mg/kg/injection, schedule: Q01DX005 (ip), vehicle: saline with Tween-80): 5 of 5

SMILES: CC(C)=CCC/C(C)=C/CNCCc1c[nH]c2ccccc12
- T/C (dose: 12.5 mg/kg/injection, schedule: Q01DX009 (ip), vehicle: Klucel (hydroxypropylcellulose) (HPC)): 130 % of control
- T/C (dose: 25.0 mg/kg/injection, schedule: Q01DX009 (ip), vehicle: Klucel (hydroxypropylcellulose) (HPC)): 127 % of control
- survivor count (dose: 100.0 mg/kg/injection, schedule: Q01DX009 (ip), vehicle: Klucel (hydroxypropylcellulose) (HPC)): 1 of 6

SMILES: COc1cccc2c1C(=O)c1c(O)c3c(c(O)c1C2=O)C[C@@](O)(/C(C)=N/NC(=O)c1ccc(-c2ccccc2)cc1)C[C@@H]3OC1CC(N)C(O)C(C)O1 (some centres undefined)
- T/C [5]: 139 % of control
- T/C (dose: 3.12 mg/kg/injection, schedule: Q01DX009 (ip), vehicle: water): 134 % of control
- T/C [6]: 139 % of control
- survivor count [7]: 6 of 6
- survivor count (dose: 25.0 mg/kg/injection, schedule: Q01DX009 (ip), vehicle: water): 6 of 6
